{"source": "PubChem BioAssay AID256", "about": "(DTP/NCI, 2004)", "system": "CD2F1 mice, L1210 leukemia ip, survival T/C", "assay": "NCI In Vivo Anticancer Drug Screen. Data for tumor model L1210 Leukemia (intraperitoneal) in CD2F1 (CDF1) mice", "details": "higher T/C = longer survival", "how_it_was_run": "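Tumor-bearing mice (transplanted tumor) were split into treated and vehicle control groups, and the measured endpoint of each treated group was divided by that of its vehicle controls.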", "key": {"[1]": {"details": "T/C endpoint: mean survival time, dose: 400.0 mg/kg/injection, schedule: Q04DX003 (ip), vehicle: saline"}, "[2]": {"details": "T/C endpoint: mean survival time, dose: 400.0 mg/kg/injection, schedule: Q04DX003 (ip), vehicle: saline with Tween-80"}, "[3]": {"details": "T/C endpoint: mean survival time, dose: 200.0 mg/kg/injection, schedule: Q01DX009 (ip), vehicle: saline with Tween-80"}, "[4]": {"details": "T/C endpoint: mean survival time, dose: 25.0 mg/kg/injection, schedule: Q01DX001 (ip), vehicle: saline with Tween-80"}, "[5]": {"details": "T/C endpoint: mean survival time, dose: 100.0 mg/kg/injection, schedule: Q01DX001 (ip), vehicle: saline with Tween-80"}, "[6]": {"details": "T/C endpoint: mean survival time, dose: 400.0 mg/kg/injection, schedule: Q01DX009 (ip), vehicle: saline with Tween-80"}, "[7]": {"details": "T/C endpoint: mean survival time, dose: 200.0 mg/kg/injection, schedule: Q04DX002 (ip), vehicle: saline with Tween-80"}, "[8]": {"details": "T/C endpoint: mean survival time, dose: 100.0 mg/kg/injection, schedule: Q04DX002 (ip), vehicle: saline with Tween-80"}, "[9]": {"details": "T/C endpoint: mean survival time, dose: 400.0 mg/kg/injection, schedule: Q01DX001 (ip), vehicle: saline"}}, "note": "The list is a part of this screen's results and no random one: it gathers tests that were run many times, whatever their T/C, doses with no T/C, and many T/C values between a quarter and a half above the control. Further doses and runs are listed elsewhere. T/C: endpoint of the treated group in % of that of the vehicle group. Some doses have a count of surviving animals in place of a T/C: the source holds a T/C of zero for them, seemingly a mark for toxic or unscored doses. Some doses without a T/C left all or most animals alive at the check, yet need not have been tolerated: the source hardly ever lists a survival T/C far under the control, and the zero likely stands for such cases as well. Survivors were counted at the toxicity check, usually on the fifth day, unless a day is given; later deaths do not show. Schedules are NCI's codes, read here as Q, the interval in days (D) or hours (H), X, the number of doses. Some doses were run more than once; the results are listed from low to high. Where survival is the endpoint, this PubChem deposit counts one and a half times the control or more as active, and values a quarter to a half above the control carry no call in these data; other NCI protocols may use other cut-offs."}
{"smiles": "C[N+](C)(C)CCOC(=O)c1ccccc1CBr", "values": [{"measurement": "survivor count", "setting": "T/C endpoint: mean survival time, dose: 100.0 mg/kg/injection, schedule: Q04DX003 (ip), vehicle: saline", "result": "0 of 6"}, {"measurement": "survivor count", "setting": "T/C endpoint: mean survival time, dose: 200.0 mg/kg/injection, schedule: Q04DX003 (ip), vehicle: saline", "result": "0 of 6"}, {"measurement": "survivor count", "setting": "[1]", "result": "0 of 6"}]}
{"smiles": "CCCC(=O)O", "values": [{"measurement": "survivor count", "setting": "T/C endpoint: mean survival time, dose: 400.0 mg/kg/injection, schedule: Q01DX009 (ip), vehicle: saline", "result": "0 of 10 and 1 of 6"}]}
{"smiles": "CC(=O)C1CCC2C3CCC4=CC(=O)CC4(C)C3CCC12C", "note": "(stereo not drawn)", "values": [{"measurement": "survivor count", "setting": "[2]", "result": "5 of 6"}]}
{"smiles": "CCCCCCCCCCCCCCCC(O)S(=O)(=O)O", "note": "(stereo not drawn)", "values": [{"measurement": "survivor count", "setting": "[3]", "result": "1 of 6"}]}
{"smiles": "CCC(C)(C)NC1=C(Cl)C(=O)c2ccccc2C1=O", "values": [{"measurement": "survivor count", "setting": "[4]", "result": "2 of 6"}, {"measurement": "survivor count", "setting": "T/C endpoint: mean survival time, dose: 50.0 mg/kg/injection, schedule: Q01DX001 (ip), vehicle: saline with Tween-80", "result": "0 of 6"}, {"measurement": "survivor count", "setting": "[5]", "result": "0 of 6"}]}
{"smiles": "OC(C=C(C(F)(F)F)C(F)(F)F)c1cccs1", "note": "(stereo not drawn)", "values": [{"measurement": "survivor count", "setting": "[3]", "result": "4 of 6"}, {"measurement": "survivor count", "setting": "[6]", "result": "4 of 6"}]}
{"smiles": "c1ccc(-c2nnc(-c3ccccn3)o2)nc1", "values": [{"measurement": "T/C", "setting": "[7]", "result": "144 % of control"}]}
{"smiles": "N#CC(=C1CCN(Cc2ccccc2)CC1)c1ccccc1", "values": [{"measurement": "survivor count", "setting": "T/C endpoint: median survival time, dose: 400.0 mg/kg/injection, schedule: Q04DX002 (ip), vehicle: saline with Tween-80", "result": "1 of 3"}]}
{"smiles": "COc1ccc(C(=O)C(Br)Br)cc1OC", "values": [{"measurement": "survivor count", "setting": "T/C endpoint: mean survival time, dose: 50.0 mg/kg/injection, schedule: Q04DX002 (ip), vehicle: saline with Tween-80", "result": "0 of 3"}, {"measurement": "survivor count", "setting": "[8]", "result": "0 of 3"}, {"measurement": "survivor count", "setting": "[7]", "result": "0 of 3"}]}
{"smiles": "C[N+]1(C)CCC2=CC3C=CC2C1C=C3", "note": "(stereo not drawn)", "values": [{"measurement": "survivor count", "setting": "T/C endpoint: median survival time, dose: 100.0 mg/kg/injection, schedule: Q04DX002 (ip), vehicle: saline with Tween-80", "result": "0 of 3"}, {"measurement": "survivor count", "setting": "T/C endpoint: median survival time, dose: 200.0 mg/kg/injection, schedule: Q04DX002 (ip), vehicle: saline with Tween-80", "result": "0 of 3"}]}
{"smiles": "C/C(CCC(=O)O)=N\\NC(N)=O", "values": [{"measurement": "survivor count", "setting": "[2]", "result": "6 of 6"}]}
{"smiles": "CC1CC(O)C(=O)C(O[C@@H]2C[C@@H]3CC[C@@H]4[C@H](CC[C@]5(C)C(C6=CC(=O)OC6)CC[C@]45O)[C@@]3(C=O)C[C@H]2O)O1", "note": "(stereo partly drawn)", "values": [{"measurement": "survivor count", "setting": "[4]", "result": "0 of 6"}, {"measurement": "survivor count", "setting": "[5]", "result": "0 of 6"}, {"measurement": "survivor count", "setting": "T/C endpoint: mean survival time, dose: 200.0 mg/kg/injection, schedule: Q01DX001 (ip), vehicle: saline with Tween-80", "result": "0 of 6"}, {"measurement": "survivor count", "setting": "T/C endpoint: mean survival time, dose: 400.0 mg/kg/injection, schedule: Q01DX001 (ip), vehicle: saline with Tween-80", "result": "0 of 6"}]}
{"smiles": "CCCCCCCC(C)/C=N/NC(=O)c1ccc[n+](C)c1", "note": "(stereo not drawn)", "values": [{"measurement": "survivor count", "setting": "[1]", "result": "0 of 6"}]}
{"smiles": "C=C1C(=O)OC2CC(C)C3CC(O)OC(O)C3(C)CC12", "note": "(stereo not drawn)", "values": [{"measurement": "survivor count", "setting": "T/C endpoint: mean survival time, dose: 25.0 mg/kg/injection, schedule: Q01DX005 (ip), vehicle: water", "result": "3 of 6"}]}
{"smiles": "O/N=C/c1ccc(O)cc1O", "values": [{"measurement": "survivor count", "setting": "[9]", "result": "0 of 6"}]}
{"smiles": "CCCCC(CC)CNC(=O)CI", "note": "(stereo not drawn)", "values": [{"measurement": "survivor count", "setting": "T/C endpoint: mean survival time, dose: 200.0 mg/kg/injection, schedule: Q01DX001 (ip), vehicle: saline", "result": "1 of 4"}, {"measurement": "survivor count", "setting": "[9]", "result": "0 of 4"}]}
{"smiles": "CC(C)(C)Sc1cccnc1", "note": "(tested in a mixture with another compound)", "values": [{"measurement": "survivor count", "setting": "[6]", "result": "0 of 6"}]}
{"smiles": "O=C(Nc1ccc(Cl)cc1)NN1CCCCCC1", "values": [{"measurement": "survivor count", "setting": "[8]", "result": "2 of 3"}, {"measurement": "survivor count", "setting": "[7]", "result": "0 of 3"}, {"measurement": "survivor count", "setting": "T/C endpoint: mean survival time, dose: 400.0 mg/kg/injection, schedule: Q04DX002 (ip), vehicle: saline with Tween-80", "result": "0 of 3"}]}
{"smiles": "O=C(CNC(=O)Nc1ccc(F)cc1)NNC(=O)Nc1ccc(Cl)c([N+](=O)[O-])c1", "values": [{"measurement": "survivor count", "setting": "T/C endpoint: mean survival time, dose: 100.0 mg/kg/injection, schedule: Q01DX009 (ip), vehicle: saline with Tween-80", "result": "5 of 6"}]}
{"smiles": "C[Si](C)(C)NP(=O)(Oc1ccc([N+](=O)[O-])cc1)Oc1ccc([N+](=O)[O-])cc1", "values": [{"measurement": "survivor count", "setting": "T/C endpoint: mean survival time, dose: 250.0 mg/kg/injection, schedule: Q01DX001 (ip), vehicle: other", "result": "0 of 6"}, {"measurement": "survivor count", "setting": "T/C endpoint: mean survival time, dose: 500.0 mg/kg/injection, schedule: Q01DX001 (ip), vehicle: other", "result": "0 of 6"}]}
{"smiles": "Cc1c2cnccc2c(C)c2c1c1ccccc1n2CCCCCCNCc1ccccc1", "values": [{"measurement": "survivor count", "setting": "T/C endpoint: mean survival time, dose: 100.0 mg/kg/injection, schedule: Q04DX003 (ip), vehicle: saline with Tween-80", "result": "6 of 6"}, {"measurement": "survivor count", "setting": "T/C endpoint: mean survival time, dose: 200.0 mg/kg/injection, schedule: Q04DX003 (ip), vehicle: saline with Tween-80", "result": "6 of 6"}, {"measurement": "survivor count", "setting": "[2]", "result": "2 of 6"}]}
